# Laboratory results from PubChem BioAssay AID1671190 (National Center for Advancing Translational Sciences (NCATS), 2021).
# Sequences of proteins named here, by UniProt entry; tags and fusion partners are left off. A change or cut given only in a name is not applied to a line headed by its entry.
# UniProt P18054: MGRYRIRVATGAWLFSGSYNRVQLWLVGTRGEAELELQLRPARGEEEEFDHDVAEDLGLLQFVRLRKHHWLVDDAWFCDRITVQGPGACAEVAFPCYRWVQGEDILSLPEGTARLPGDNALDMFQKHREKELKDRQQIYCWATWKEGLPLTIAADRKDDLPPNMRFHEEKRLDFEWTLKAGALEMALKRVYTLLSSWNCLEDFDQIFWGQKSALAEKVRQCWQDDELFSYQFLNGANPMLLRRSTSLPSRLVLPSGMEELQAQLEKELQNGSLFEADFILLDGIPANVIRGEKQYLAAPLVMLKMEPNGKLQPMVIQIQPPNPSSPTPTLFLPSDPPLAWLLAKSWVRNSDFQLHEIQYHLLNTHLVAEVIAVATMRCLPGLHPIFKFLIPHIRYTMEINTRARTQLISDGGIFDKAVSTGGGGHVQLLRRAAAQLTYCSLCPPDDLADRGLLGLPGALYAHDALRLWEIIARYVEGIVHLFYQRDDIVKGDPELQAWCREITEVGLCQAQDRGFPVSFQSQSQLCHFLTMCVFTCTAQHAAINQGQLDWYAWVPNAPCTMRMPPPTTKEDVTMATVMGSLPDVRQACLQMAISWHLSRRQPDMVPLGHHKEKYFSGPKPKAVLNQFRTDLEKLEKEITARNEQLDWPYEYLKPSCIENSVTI
# Values joined by “and” are separate entries in the source; they are usually repeats but may differ in a detail not shown here. Equal values may be shown once. Screen size: about 580,000 compounds; about 6,100 (1.1%) were called active. Inconclusive means that the source gave no clear call. Such entries were picked first, then a sample of the others. The call rests on the fitted dose curve; in most records, active means well fitted inhibition curve with a large enough effect; inconclusive means small, poorly fitted or top-dose-only effect, or another doubt; inactive means no such curve, though single readings can be large or run the other way. Potencies beside an inconclusive call are fits to weak or partial responses and may not hold up.
# Biological target: Polyunsaturated fatty acid lipoxygenase ALOX12 (Homo sapiens) (UniProt P18054)
# Assay: Primary qHTS assay for inhibitors of human arachidonate 12S-lipoxygenase (ALOX12): Round 2
# Conditions: purified 12hLO, xylenol orange hydroperoxide absorbance; activity change, negative = inhibition: at 108 µM (top of the series) unless noted
# Procedure, shortened: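 Purified human 12hLO (150 nM final) in 25 mM Hepes, 0.01% Triton X-100, pH 7.0 was preincubated 15 min at room temperature with compound. Then 40 uM arachidonic acid was added, 30 min. Hydroperoxide was read by Fe-XO absorbance ratio 573/405 nm.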
# On the % scale 0 is the no-effect control and ±100 the full control effect; potency means the concentration at half of the fitted maximal effect.
Structure (SMILES),Potency,"activity change, negative = inhibition"
CN(C)CC/C=C1/c2cc(F)ccc2Sc2ccc(Cl)cc21,inactive,–
CCNC(=O)N1CCCC(Cc2noc(-c3ccccc3)n2)C1 (stereo not given),"inconclusive: 8.91 µM [inhibitor, partial curve, poor fit]",–
CN(C)c1ccc([N+](=O)[O-])cc1,"inconclusive: 25.1 µM [inhibitor, partial curve, poor fit]",–
CN(C)/C=C1\NC(=S)N(c2ccccc2)C1=O,"inconclusive: 50.1 µM [inhibitor, partial curve, poor fit]",–
COc1ccc(N=Nc2ccc(N)nc2N)cc1,"inconclusive: 56.2 µM [inhibitor, partial curve, poor fit]",–
N#CNC(=Nc1cccc(F)c1)SCc1ccccc1,"inactive and inconclusive: 35.5 µM [inhibitor, partial curve, poor fit]",–
FC(F)(F)c1cccc(-n2cc(-c3ccccc3)[nH]c2=S)c1,"inconclusive: 35.5 µM [inhibitor, partial curve, poor fit]",–
O=C1CC2(CCCCC2)C(=O)N1Cc1ncc(-c2ccccc2)o1,inactive,–
O=C1c2cnc(-c3ccccc3)nc2OCCN1c1ccccc1,"inconclusive: 12.6 µM [inhibitor, full curve, poor fit]",–
C/C(=N\Nc1ncnc2sc(C)c(C)c12)c1ccccn1,"inconclusive: 44.7 µM [inhibitor, partial curve, poor fit]",–
Cc1cc(C)nc(SCC(=O)Nc2ccc3c(c2)OCO3)n1,inactive,–
CC(C)C(=O)N1Cc2ccccc2CC2(CCCCN2CC2CCNC2)C1 (stereo not given),"inconclusive: 11.2 µM [inhibitor, full curve, poor fit]",–
CCCS(=O)(=O)NC(=O)C1(C)CCN(C(=O)CSc2ccccc2)C1 (stereo not given),inactive,–
O=C(O)C(c1c[nH]c2ccc(Cl)cc12)N1CCCN(c2ccc(C(F)(F)F)cn2)CC1 (stereo not given),"inconclusive: 100 µM [inhibitor, partial curve, poor fit]",–
COc1cc(CNC2CCCC2)ccc1OCc1ccccc1,"inconclusive: 1.78 µM [inhibitor, full curve]",–
CC(C)(C)C1CCC(OCC(O)CN2CCN(c3ccccn3)CC2)CC1 (stereo not given),"inconclusive: 35.5 µM [inhibitor, partial curve, poor fit]",–
COC(=O)[C@]1(Cc2ccccc2)N[C@H](CN(C)C(=O)c2ccc(C)cc2)[C@@H]2C(=O)N(C)C(=O)[C@@H]21,"inconclusive: 2.24 µM [inhibitor, full curve, poor fit]",–
COc1ccccc1NC(=O)C(C)OC(=O)CCNS(=O)(=O)c1ccc(C)c(C)c1 (stereo not given),"inconclusive: 126 µM [inhibitor, single point]",–
O=C(O)c1ccccc1Nc1ccccc1,inactive,–
O=C(N/N=C/c1cc2c(cc1Br)OCO2)c1c[nH]c2ccccc12,inactive,–
COCCCn1c(C(=O)N2CCOCC2)cc2c(=O)n3cccc(C)c3nc21,inactive,–
CC(=O)c1cccc(-c2ccnc3c2CC(C(=O)Nc2cccc(OC(F)(F)F)c2)O3)c1 (stereo not given),"inconclusive: 100 µM [inhibitor, partial curve, poor fit]",–
CCOc1ccc(Nc2nc(Cc3nnc(SCC(=O)O)o3)cs2)cc1,inactive,–

Structure (SMILES),Potency,"activity change, negative = inhibition"
CCCC(=O)Nc1ccc(C(=O)COC(=O)C2=COCCO2)cc1,inactive,–
CC(C)C(=O)Nc1cccc(N2CCN(CCCN3C(=O)C4CCCCN4C3=O)CC2)c1 (stereo not given),"inconclusive: 50.1 µM [inhibitor, partial curve, poor fit]",–
CCOC(=O)C1(Cc2ccc(OC)cc2)CCN(C(=O)C2=CCCC2)CC1,inactive,–
Cc1oc(-c2cccs2)nc1C(=O)N1CCC(NC(=O)C2CC2)CC1,inactive,–
CCOc1ccccc1NC(=O)CCSc1nc2n[nH]c(C)c2c(=N)n1-c1ccccc1Cl,inactive,–
CCc1nc(SCC(=O)Nc2ccc(N(CC)CC)cc2)n[nH]1,inactive,–
COc1ccc(Cc2noc(=O)[nH]2)cc1,"inconclusive: 44.7 µM [inhibitor, partial curve]",–
O=C(Nc1ccc(F)c(F)c1)c1ccc2ccccc2n1,"inconclusive: 39.8 µM [inhibitor, single point]",–
COc1ccc(N2C(=O)c3cc4oc(C)cc4n3CC2(C)C(=O)NC2CCCCCC2)cc1OC (stereo not given),"inconclusive: 39.8 µM [inhibitor, partial curve, poor fit]",–
NC(=O)CC[C@@H]1NC(=O)[C@@H]2CCCN2C(=O)c2cc([N+](=O)[O-])cc(I)c2NCCC[C@@H](C(=O)NC(CC(=O)O)C(N)=O)NC1=O (stereo not given in full),"inconclusive: 50.1 µM [inhibitor, partial curve, poor fit]",–
CCCCc1noc(CSc2nnnn2-c2ccccc2OC)n1,inactive,–
N#Cc1nc(Cc2ccccc2)oc1N1CCC(C(N)=O)CC1,inactive,–
Nc1nnc(SCC(=O)OCC(=O)c2ccccc2)s1,inactive,–
C#CCOC(=O)C[N+](C)(C)C/C=C(/C)Cl,"inconclusive: 39.8 µM [inhibitor, partial curve, poor fit]",–
O=C(C1CCCC1)N1CC2(CCCN2Cc2cccnc2)Cc2ccccc21 (stereo not given),–,inactive: 2.86% [at 6.33 µM]
O=C(CSc1ncnc2c1oc1ccccc12)NCc1ccc(F)cc1,"inconclusive: 100 µM [inhibitor, single point]",–
O=C(CSc1ccc(Br)cc1)NCc1ccc(CN2CCCC2)cc1,"inconclusive: 17.8 µM [inhibitor, partial curve]",–
CC1=NCCN1CCNC(=O)Nc1ccc(C(C)(C)C)cc1,"inconclusive: 112 µM [inhibitor, partial curve, poor fit]",–
CCCc1cc(=O)oc2cc(OCC(=O)OC(C)(C)C)ccc12,inactive,–
CC1CCN(S(=O)(=O)c2ccc3c(c2)c(=O)c(C(=O)NCc2ccc(Cl)cc2)cn3C)CC1,–,inconclusive: -30.2% [inhibitor]
Oc1oc(-c2ccco2)nc1C=Nc1cccc(Cl)c1,inactive,–
CCOC(=O)c1cnn(CC2CCCCC2)c1N,"inconclusive: 31.6 µM [inhibitor, single point]",–

# In another format: 3 of the compounds above.
Structure (SMILES)	Potency	activity change, negative = inhibition
CN(C)c1ccc([N+](=O)[O-])cc1	inconclusive: 25.1 µM [inhibitor, partial curve, poor fit]	–
CN(C)/C=C1\NC(=S)N(c2ccccc2)C1=O	inconclusive: 50.1 µM [inhibitor, partial curve, poor fit]	–
COc1ccc(N=Nc2ccc(N)nc2N)cc1	inconclusive: 56.2 µM [inhibitor, partial curve, poor fit]	–
